Some of the results follow. Small differences around the control level are noise.
System: ppGalNAc-T3 sensor
Assay: T3 sensor activation Q score (MG/GFP ratio z-score vs DMSO controls) (SD units); higher = more sensor activation (inhibition of ppGalNAc-T3 glycosylation)
Details: HEK293 sensor cells; 10 µM; 6 h
Experimental: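 Cells were treated with compound at 10 uM for 6 h, then MG/GFP ratio was read by flow cytometry (10,000 cells per well, duplicate wells). Q = (R - R_neg)/SD_neg relative to DMSO vehicle controls; the signal rises when the glycosyltransferase is inhibited.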

Q: How did the “T3 sensor activation Q score” value turn out when CCOc1cc(CN2CCN(c3ccccc3Cl)CC2)ccc1O was run?
A: 0.115

Q: How did the “T3 sensor activation Q score” value turn out when COc1cccc(CN2CCN(c3ccccc3)CC2)c1 was run?
A: -0.415

Q: How did the “T3 sensor activation Q score” value turn out when Cc1ccc(C)c(CN2CCN(C)CC2)c1 was run?
A: 0.32

Q: For CN1CCN(Cc2ccc(Cl)cc2)CC1, which “T3 sensor activation Q score” value is on record?
A: -0.46

Q: Which “T3 sensor activation Q score” value does the source give for O=C1NC(=O)C(Cc2ccc(F)cc2)C(=O)N1 here?
A: -1.27

Q: How did the “T3 sensor activation Q score” value turn out when COc1ccc(CN2CCN(c3ccccc3)CC2)c(C)c1C was run?
A: -0.17

Q: How did the “T3 sensor activation Q score” value turn out when CN1CCN(Cc2ccc3c(c2)OCO3)CC1 was run?
A: -0.15

Q: Cc1ccccc1CN1CCN(c2ccccc2C)CC1 was tested. Which “T3 sensor activation Q score” value did it give?
A: 0.2

Q: Cc1ccc(CN2CCN(C)CC2)c(C)c1 was tested. Which “T3 sensor activation Q score” value did it give?
A: 0.475

Q: How did the “T3 sensor activation Q score” value turn out when Oc1ccc(CN2CCN(c3cccc(Cl)c3)CC2)cc1 was run?
A: -0.805

Q: Which “T3 sensor activation Q score” value does the source give for COc1ccccc1N1CCN(Cc2cccc(Cl)c2)CC1 here?
A: 0.625

Q: Which “T3 sensor activation Q score” value does the source give for Fc1cccc(CN2CCN(c3ccccc3Cl)CC2)c1 here?
A: -0.03

Q: With CC(NC(=O)C(Cl)(Cl)Cl)c1ccccc1 (stereo not drawn) as the compound, how does the “T3 sensor activation Q score” value read?
A: -1.06

Q: How did the “T3 sensor activation Q score” value turn out when CCOc1ccccc1N1CCN(Cc2ccccc2Cl)CC1 was run?
A: 0.345

Q: Cc1ccc(C)c(CN2CCN(c3ccccc3)CC2)c1 was tested. Which “T3 sensor activation Q score” value did it give?
A: -0.175

Q: Which “T3 sensor activation Q score” value does the source give for CN1CCN(c2ccc(Cl)cc2[N+](=O)[O-])CC1 here?
A: 0.28

Q: For C/C(=C\c1ccc(Cl)cc1)[N+](=O)[O-], which “T3 sensor activation Q score” value is on record?
A: -0.575

Q: For CN1CCN(Cc2ccc(N(C)C)cc2)CC1, which “T3 sensor activation Q score” value is on record?
A: 0.545

Q: Brc1ccc(CN2CCN(c3ccccc3)CC2)cc1 was tested. Which “T3 sensor activation Q score” value did it give?
A: -0.135

Q: How did the “T3 sensor activation Q score” value turn out when Fc1cccc(CN2CCN(c3cccc(Cl)c3)CC2)c1 was run?
A: 0.2

Q: With COc1ccc(N2C(=O)CC(=O)NC2=O)cc1 as the compound, how does the “T3 sensor activation Q score” value read?
A: -0.475

Q: Oc1ccc(CN2CCN(c3ccccc3)CC2)cc1 was tested. Which “T3 sensor activation Q score” value did it give?
A: 0.35

Q: CCOc1ccc(CN2CCN(c3ccccc3OC)CC2)cc1 was tested. Which “T3 sensor activation Q score” value did it give?
A: -1.01

Q: Which “T3 sensor activation Q score” value does the source give for Fc1ccc(N2CCN(Cc3ccc(F)cc3F)CC2)cc1 here?
A: -0.33

Q: With COc1ccc(CN2CCN(c3cccc(C)c3C)CC2)cc1 as the compound, how does the “T3 sensor activation Q score” value read?
A: 0.7

Q: For Fc1ccc(N2CCN(Cc3ccccc3)CC2)cc1, which “T3 sensor activation Q score” value is on record?
A: -0.205

Q: For CCN1CCN(Cc2cccc([N+](=O)[O-])c2)CC1, which “T3 sensor activation Q score” value is on record?
A: -0.385

Q: CN1CCN(Cc2cccc(Cl)c2)CC1 was tested. Which “T3 sensor activation Q score” value did it give?
A: 0.15

Q: Fc1ccccc1N1CCN(Cc2cccc(Cl)c2)CC1 was tested. Which “T3 sensor activation Q score” value did it give?
A: 0.09

Q: COc1ccc(CN2CCN(c3ccccc3Cl)CC2)c(OC)c1 was tested. Which “T3 sensor activation Q score” value did it give?
A: -1.72

Q: For Cc1ccccc1N1CCN(Cc2ccc([N+](=O)[O-])cc2)CC1, which “T3 sensor activation Q score” value is on record?
A: 0.065

Q: For Cc1ccccc1CN1CCN(c2ccc(F)cc2)CC1, which “T3 sensor activation Q score” value is on record?
A: 0.065

Q: How did the “T3 sensor activation Q score” value turn out when COc1ccccc1CN1CCN(c2ccccc2OC)CC1 was run?
A: 0.245

Q: Which “T3 sensor activation Q score” value does the source give for CCN1CCN(Cc2cc(C)ccc2C)CC1 here?
A: 0.56

Q: CN1CCN(Cc2ccc(F)cc2)CC1 was tested. Which “T3 sensor activation Q score” value did it give?
A: -0.15

Q: How did the “T3 sensor activation Q score” value turn out when COc1ccc(OC)c(CN2CCN(c3ccccc3C)CC2)c1 was run?
A: 0.285

Q: With Cc1ccccc1CN1CCN(c2ccc([N+](=O)[O-])cc2)CC1 as the compound, how does the “T3 sensor activation Q score” value read?
A: -0.005

Q: Which “T3 sensor activation Q score” value does the source give for COc1ccc(CN2CCN(c3ccccc3F)CC2)c(C)c1C here?
A: 1

Reference: the supplement of paper PMC5407854, “Inhibitor of ppGalNAc-T3-mediated O-glycosylation blocks cancer cell invasiveness and lowers FGF23 levels” (eLife, 2017)
